From paper PMC10723533
Results are given in words; binding and its absence hold for the method and conditions named. In cells and extracts the contact can be indirect. These calls come from enrichment with a bait or labelling near it, and not all partners need be listed. Sequences can lack the tags named with a protein.

Sequences of proteins named here, by UniProt entry; tags and fusion partners are left off.
UniProt Q10428: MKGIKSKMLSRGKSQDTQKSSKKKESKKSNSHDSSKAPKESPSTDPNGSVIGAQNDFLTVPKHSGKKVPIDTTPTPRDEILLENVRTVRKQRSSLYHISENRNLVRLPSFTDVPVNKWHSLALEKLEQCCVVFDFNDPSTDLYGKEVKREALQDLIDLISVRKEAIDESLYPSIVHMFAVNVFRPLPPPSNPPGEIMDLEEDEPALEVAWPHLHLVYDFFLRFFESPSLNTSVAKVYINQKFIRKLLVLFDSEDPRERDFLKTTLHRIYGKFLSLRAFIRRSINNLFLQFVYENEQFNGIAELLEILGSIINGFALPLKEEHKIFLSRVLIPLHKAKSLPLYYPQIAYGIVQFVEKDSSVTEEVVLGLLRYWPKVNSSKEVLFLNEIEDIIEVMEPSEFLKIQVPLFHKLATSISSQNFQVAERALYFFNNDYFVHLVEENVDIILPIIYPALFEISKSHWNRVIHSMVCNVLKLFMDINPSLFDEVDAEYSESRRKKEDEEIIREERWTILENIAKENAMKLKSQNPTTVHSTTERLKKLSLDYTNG
UniProt P23636: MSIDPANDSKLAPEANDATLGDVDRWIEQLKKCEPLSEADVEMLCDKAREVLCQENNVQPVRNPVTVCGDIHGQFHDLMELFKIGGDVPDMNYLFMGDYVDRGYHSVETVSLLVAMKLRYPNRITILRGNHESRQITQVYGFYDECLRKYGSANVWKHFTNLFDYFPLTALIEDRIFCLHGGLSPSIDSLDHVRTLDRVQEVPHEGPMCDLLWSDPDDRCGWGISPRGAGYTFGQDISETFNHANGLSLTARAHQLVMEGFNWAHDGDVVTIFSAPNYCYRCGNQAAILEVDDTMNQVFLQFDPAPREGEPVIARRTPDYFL
UniProt P13681: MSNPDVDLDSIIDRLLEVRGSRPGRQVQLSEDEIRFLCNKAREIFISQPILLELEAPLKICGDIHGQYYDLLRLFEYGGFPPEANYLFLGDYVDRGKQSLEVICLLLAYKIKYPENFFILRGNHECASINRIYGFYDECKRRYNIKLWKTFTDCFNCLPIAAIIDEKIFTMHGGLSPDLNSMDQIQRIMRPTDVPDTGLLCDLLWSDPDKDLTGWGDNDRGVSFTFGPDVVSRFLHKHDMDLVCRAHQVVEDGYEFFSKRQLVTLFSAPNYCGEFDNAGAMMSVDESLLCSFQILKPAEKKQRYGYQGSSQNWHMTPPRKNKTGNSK
UniProt P23635: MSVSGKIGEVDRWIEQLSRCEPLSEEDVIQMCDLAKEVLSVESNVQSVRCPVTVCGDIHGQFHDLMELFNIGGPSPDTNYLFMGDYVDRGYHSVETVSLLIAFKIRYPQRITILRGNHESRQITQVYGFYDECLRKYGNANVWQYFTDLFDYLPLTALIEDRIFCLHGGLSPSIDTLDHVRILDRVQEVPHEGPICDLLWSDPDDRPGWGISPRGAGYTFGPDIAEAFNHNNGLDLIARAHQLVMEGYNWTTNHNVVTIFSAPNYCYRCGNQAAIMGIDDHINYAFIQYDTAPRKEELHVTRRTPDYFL

Biological target: T1, Paa1-L-YFP (S. pombe) (UniProt Q9UT08)
T1 sequence: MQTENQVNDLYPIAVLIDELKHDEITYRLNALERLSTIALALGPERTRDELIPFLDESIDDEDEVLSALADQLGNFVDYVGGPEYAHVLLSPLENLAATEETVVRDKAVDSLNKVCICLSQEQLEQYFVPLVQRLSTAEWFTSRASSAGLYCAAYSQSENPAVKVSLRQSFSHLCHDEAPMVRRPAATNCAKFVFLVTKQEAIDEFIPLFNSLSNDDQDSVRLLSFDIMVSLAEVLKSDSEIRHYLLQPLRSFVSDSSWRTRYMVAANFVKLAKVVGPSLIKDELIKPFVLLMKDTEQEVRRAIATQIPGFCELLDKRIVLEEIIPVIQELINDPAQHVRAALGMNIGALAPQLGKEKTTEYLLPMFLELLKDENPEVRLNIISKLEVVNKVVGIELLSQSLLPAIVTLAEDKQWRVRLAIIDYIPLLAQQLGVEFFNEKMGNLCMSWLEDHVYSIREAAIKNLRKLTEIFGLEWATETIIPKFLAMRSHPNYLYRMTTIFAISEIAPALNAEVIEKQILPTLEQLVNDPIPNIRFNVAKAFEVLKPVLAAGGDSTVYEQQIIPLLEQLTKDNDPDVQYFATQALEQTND
Assay: affinity purification with mass spectrometry; YFP-tagged bait (Paa1-L-YFP or Pab1-L-YFP) on GFP-Trap beads; cells 1 hour in EMM2-N, crosslinked with 1% formaldehyde for 10 min at 25 °C; lysis buffer 25 mM Tris HCl pH 7.5, 150 mM NaCl, 0.5% SDS (diluted to 0.1%), 1% NP40; washes with 500 mM NaCl

| binding | Substance |
| --- | --- |
| binds | Par1 (from UniProt Q10428 1-548) |
| binds | Ppa2 (from UniProt P23636 1-322) (enzyme) |
| binds | Dis2 (from UniProt P13681 1-327) (enzyme) |
| binds | Ppa3 (S. pombe (endogenous in S. pombe cells)) (enzyme) |
| binds | Igo1 (S. pombe (endogenous in S. pombe cells)) |
| binds | Ppa1 (from UniProt P23635 1-309) (enzyme) |
| binds | Pab1 (S. pombe (endogenous in S. pombe cells)) |
